Measurements as given in PMC4756710.
These are yes or no findings as the source states them, for the method shown. Binding seen in cells or lysates may run through a third protein. Where a sequence is shown, tags or fusion partners need not be part of it.

Amino acid sequences for entries named in this document (tags omitted).
UniProt Q9GZV5: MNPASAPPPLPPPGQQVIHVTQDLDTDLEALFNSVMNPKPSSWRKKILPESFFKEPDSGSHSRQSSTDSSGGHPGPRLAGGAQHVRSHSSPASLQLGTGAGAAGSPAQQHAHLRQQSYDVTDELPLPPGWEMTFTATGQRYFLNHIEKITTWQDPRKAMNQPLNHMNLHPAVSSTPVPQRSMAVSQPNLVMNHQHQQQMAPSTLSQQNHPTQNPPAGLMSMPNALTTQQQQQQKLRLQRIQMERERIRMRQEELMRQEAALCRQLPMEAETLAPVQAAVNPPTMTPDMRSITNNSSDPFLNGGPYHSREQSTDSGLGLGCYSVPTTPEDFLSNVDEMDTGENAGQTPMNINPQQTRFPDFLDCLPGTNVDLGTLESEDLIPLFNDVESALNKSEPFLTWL

Target: T1, HA-tagged WT ZEB1, full length, in vitro synthesized (UniProt P37275)
T1 sequence: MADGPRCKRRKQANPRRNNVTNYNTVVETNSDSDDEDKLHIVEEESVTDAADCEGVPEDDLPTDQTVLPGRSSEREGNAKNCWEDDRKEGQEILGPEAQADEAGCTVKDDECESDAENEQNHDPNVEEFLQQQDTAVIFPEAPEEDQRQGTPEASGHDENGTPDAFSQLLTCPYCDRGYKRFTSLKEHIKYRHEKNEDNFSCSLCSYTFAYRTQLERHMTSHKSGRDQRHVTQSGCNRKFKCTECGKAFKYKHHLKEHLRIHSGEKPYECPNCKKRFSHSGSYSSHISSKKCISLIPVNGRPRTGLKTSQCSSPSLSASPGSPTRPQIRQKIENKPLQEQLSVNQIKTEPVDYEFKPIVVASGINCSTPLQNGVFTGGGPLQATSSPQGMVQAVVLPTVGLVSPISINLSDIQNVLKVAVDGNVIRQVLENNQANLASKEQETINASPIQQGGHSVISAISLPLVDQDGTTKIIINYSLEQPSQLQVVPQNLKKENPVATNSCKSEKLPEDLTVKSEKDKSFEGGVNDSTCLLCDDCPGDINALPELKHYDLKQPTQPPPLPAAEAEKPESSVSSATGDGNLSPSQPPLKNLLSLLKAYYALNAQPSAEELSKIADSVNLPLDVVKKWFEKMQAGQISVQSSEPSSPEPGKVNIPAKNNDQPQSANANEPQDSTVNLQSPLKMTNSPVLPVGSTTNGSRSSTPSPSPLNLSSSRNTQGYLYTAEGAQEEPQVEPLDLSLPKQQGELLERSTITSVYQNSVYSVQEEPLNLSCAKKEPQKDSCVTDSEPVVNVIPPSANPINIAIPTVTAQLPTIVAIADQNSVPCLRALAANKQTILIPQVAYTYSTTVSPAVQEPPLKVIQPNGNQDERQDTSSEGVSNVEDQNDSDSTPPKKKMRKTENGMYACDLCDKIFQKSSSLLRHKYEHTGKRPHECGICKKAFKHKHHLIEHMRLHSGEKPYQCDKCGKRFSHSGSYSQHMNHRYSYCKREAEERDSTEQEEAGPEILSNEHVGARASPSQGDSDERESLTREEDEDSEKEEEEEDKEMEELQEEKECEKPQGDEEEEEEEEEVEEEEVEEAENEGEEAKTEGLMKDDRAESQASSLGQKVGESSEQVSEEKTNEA
Test: pull-down; in vitro translated proteins (wheat germ) incubated in pull-down buffer (250 mM sucrose, 10 mM MOPS/KOH pH 7.2, 80 mM KCl, 5 mM MgCl2, 5 mM KH2PO4) 1 h at 37 °C; HA-ZEB1 held on anti-HA affinity matrix, 1 h at 4 °C, five washes; western blot (anti-His)

“His-tagged WT TAZ, full length, in vitro synthesized (from UniProt Q9GZV5 1-400)” was tested, and the binding was “no binding”.
